The record followed here is patent publication US20230203127A1.

No constants are given. Whether binding was seen depends on the method and setting. Binding calls can cover weak binding; strength is not graded here.

The target in the assay is HLA-A*02:01 (human). Description: UV peptide-exchange ELISA, exchange yield grade. On the technique in general: An ELISA detects its analyte on a solid surface through an enzyme-linked reagent.
As for GLAGDNIYL [… (SEQ ID NO: 210)], the binding result is on record as “binds”.
Next, LVVDEGSLVSV [… (SEQ ID NO: 167)]: “binds”; TLDSYLKAV [… (SEQ ID NO: 155)]: “binds”; LLLLDVPTA [… (SEQ ID NO: 171)]: “binds”.
Next, LLWAPTAQA [… (SEQ ID NO: 181)]: “binds”; GIINKLVTV [… (SEQ ID NO: 138)]: “binds”.
The same measure for RLYEEEIRI [… (SEQ ID NO: 180)]: “binds”; for TLQEWLTEV [… (SEQ ID NO: 160)]: “binds”.
Consider GLLPSAESIKL [… (SEQ ID NO: 17)], for which the binding entry is recorded as “binds”.
The same measure for VLGEEQEGV [… (SEQ ID NO: 188)]: “binds”; for ILAVDGVLSV [… (SEQ ID NO: 213)]: “binds”; for NIDINNNEL [… (SEQ ID NO: 141)]: “binds”.
Next, LLDAAHASI [… (SEQ ID NO: 142)]: “binds”; SLSTELFKV [… (SEQ ID NO: 190)]: “binds”.
Next, GLDAFRIFL [… (SEQ ID NO: 206)]: “binds”; SILKEDPFL [… (SEQ ID NO: 187)]: “binds”.
Take TLGEIIKGV [… (SEQ ID NO: 179)]: the binding result is given as “binds”.
Next, MLIIRVPSV [… (SEQ ID NO: 164)]: “binds”; LLGDSSFFL [… (SEQ ID NO: 166)]: “binds”; KVFELDLVTL [… (SEQ ID NO: 19)]: “binds”.
The same measure for GLEERLYTA [… (SEQ ID NO: 163)]: “binds”; for AIIKEIQTV [… (SEQ ID NO: 154)]: “binds”; for FLISQTPLL [… (SEQ ID NO: 144)]: “binds”.
Next, SEWGSPHAAVP [… (SEQ ID NO: 204)]: “binds”; VIFEGEPMYL [… (SEQ ID NO: 168)]: “binds”.
As for FLDSQITTV [… (SEQ ID NO: 140)], the binding result is reported as “binds”.
Turning to FIAAVVEKV [… (SEQ ID NO: 170)], the binding entry is “binds”.
The same measure for MLWESIMRV [… (SEQ ID NO: 143)]: “binds”; for ALDSTIAHL [… (SEQ ID NO: 184)]: “binds”.
The same measure for SLADLSLLL [… (SEQ ID NO: 16)]: “binds”; for ALSYILPYL [… (SEQ ID NO: 183)]: “binds”; for ALYSGDLHAA [… (SEQ ID NO: 174)]: “binds”.
The same measure for VVAAHLAGA [… (SEQ ID NO: 146)]: “binds”; for ALADLSVAV [… (SEQ ID NO: 169)]: “binds”.
Consider VQSGLRILL [… (SEQ ID NO: 176)], for which the binding result is “binds”.
For the molecule KTASINQNV [… (SEQ ID NO: 18)], the binding entry is given as “binds”.
For the molecule IILENIQSL [… (SEQ ID NO: 139)], the binding entry is given as “binds”.
In the case of VIIQNLPAL [… (SEQ ID NO: 195)], the binding result is “binds”.
Next, QLGPVPVTI [… (SEQ ID NO: 159)]: “binds”.
The same measure for ALEEKLENV [… (SEQ ID NO: 145)]: “binds”; for YLILSSHQL [… (SEQ ID NO: 148)]: “binds”.
On to KLLEEVQLL [… (SEQ ID NO: 194)], for which the binding entry is “binds”.
For the molecule YLDPLWHQL [… (SEQ ID NO: 158)], the binding entry is “binds”.
The same measure for SLVSWQLLL [… (SEQ ID NO: 178)]: “binds”.
The same measure for ALINVLNAL [… (SEQ ID NO: 177)]: “binds”.
For VLLDMVHSL [… (SEQ ID NO: 150)], the binding entry is given as “binds”.
Next, TLYQGLPAEV [… (SEQ ID NO: 185)]: “binds”.
The same measure for MTLSEIHAV [… (SEQ ID NO: 212)]: “binds”.
Next, HLNNDRNPL [… (SEQ ID NO: 208)]: “binds”; DISKRIQSL [… (SEQ ID NO: 151)]: “binds”; TLLPSSGLVTL [… (SEQ ID NO: 192)]: “binds”.
SVADLAHVL [… (SEQ ID NO: 199)]: the binding entry was “binds”.
For NLLDENVCL [… (SEQ ID NO: 161)], the binding result was “binds”.
Next, GLQDGFQITV [… (SEQ ID NO: 182)]: “binds”; GLLSALENV [… (SEQ ID NO: 147)]: “binds”.
The same measure for SLLDLVQSL [… (SEQ ID NO: 175)]: “binds”; for ILTNKVVSV [… (SEQ ID NO: 198)]: “binds”.
The same measure for KLFETVEEL [… (SEQ ID NO: 207)]: “binds”; for ALVEKGEFAL [… (SEQ ID NO: 20)]: “binds”.
As for LLTTVLINA [… (SEQ ID NO: 211)], the binding result was “binds”.
Next, GLLGNLLTSL [… (SEQ ID NO: 162)]: “binds”; ALFHMNILL [… (SEQ ID NO: 193)]: “binds”; SLLDYEVSI [… (SEQ ID NO: 165)]: “binds”.
The same measure for FLFVDPELV [… (SEQ ID NO: 203)]: “binds”; for ILQDGQFLV [… (SEQ ID NO: 157)]: “binds”.
The same measure for IMPTFDLTKV [… (SEQ ID NO: 200)]: “binds”.
Regarding RLIDIYKNV [… (SEQ ID NO: 173)], the binding entry is “binds”.
The same measure for NMADGQLHQV [… (SEQ ID NO: 149)]: “binds”; for AAIEIFEKV [… (SEQ ID NO: 191)]: “binds”.
Next, YLMDDFSSL [… (SEQ ID NO: 21)]: “binds”.
